Assay results as given in paper PMC10115178.
Construct, isoform or probe ends are uncertain for at least one entry. Where cells or extracts were used, other partners may take part. For some of these results: The comparison behind a weaker result is the experiment's own reference, which may not be listed here. At least one verdict was read from the data and is not stated in words by the source. For some of these results: Tags and fusion partners may be left off the protein sequences shown.

The chains behind the UniProt entries cited, without tags or fusion partners.
UniProt Q09472, whole entry: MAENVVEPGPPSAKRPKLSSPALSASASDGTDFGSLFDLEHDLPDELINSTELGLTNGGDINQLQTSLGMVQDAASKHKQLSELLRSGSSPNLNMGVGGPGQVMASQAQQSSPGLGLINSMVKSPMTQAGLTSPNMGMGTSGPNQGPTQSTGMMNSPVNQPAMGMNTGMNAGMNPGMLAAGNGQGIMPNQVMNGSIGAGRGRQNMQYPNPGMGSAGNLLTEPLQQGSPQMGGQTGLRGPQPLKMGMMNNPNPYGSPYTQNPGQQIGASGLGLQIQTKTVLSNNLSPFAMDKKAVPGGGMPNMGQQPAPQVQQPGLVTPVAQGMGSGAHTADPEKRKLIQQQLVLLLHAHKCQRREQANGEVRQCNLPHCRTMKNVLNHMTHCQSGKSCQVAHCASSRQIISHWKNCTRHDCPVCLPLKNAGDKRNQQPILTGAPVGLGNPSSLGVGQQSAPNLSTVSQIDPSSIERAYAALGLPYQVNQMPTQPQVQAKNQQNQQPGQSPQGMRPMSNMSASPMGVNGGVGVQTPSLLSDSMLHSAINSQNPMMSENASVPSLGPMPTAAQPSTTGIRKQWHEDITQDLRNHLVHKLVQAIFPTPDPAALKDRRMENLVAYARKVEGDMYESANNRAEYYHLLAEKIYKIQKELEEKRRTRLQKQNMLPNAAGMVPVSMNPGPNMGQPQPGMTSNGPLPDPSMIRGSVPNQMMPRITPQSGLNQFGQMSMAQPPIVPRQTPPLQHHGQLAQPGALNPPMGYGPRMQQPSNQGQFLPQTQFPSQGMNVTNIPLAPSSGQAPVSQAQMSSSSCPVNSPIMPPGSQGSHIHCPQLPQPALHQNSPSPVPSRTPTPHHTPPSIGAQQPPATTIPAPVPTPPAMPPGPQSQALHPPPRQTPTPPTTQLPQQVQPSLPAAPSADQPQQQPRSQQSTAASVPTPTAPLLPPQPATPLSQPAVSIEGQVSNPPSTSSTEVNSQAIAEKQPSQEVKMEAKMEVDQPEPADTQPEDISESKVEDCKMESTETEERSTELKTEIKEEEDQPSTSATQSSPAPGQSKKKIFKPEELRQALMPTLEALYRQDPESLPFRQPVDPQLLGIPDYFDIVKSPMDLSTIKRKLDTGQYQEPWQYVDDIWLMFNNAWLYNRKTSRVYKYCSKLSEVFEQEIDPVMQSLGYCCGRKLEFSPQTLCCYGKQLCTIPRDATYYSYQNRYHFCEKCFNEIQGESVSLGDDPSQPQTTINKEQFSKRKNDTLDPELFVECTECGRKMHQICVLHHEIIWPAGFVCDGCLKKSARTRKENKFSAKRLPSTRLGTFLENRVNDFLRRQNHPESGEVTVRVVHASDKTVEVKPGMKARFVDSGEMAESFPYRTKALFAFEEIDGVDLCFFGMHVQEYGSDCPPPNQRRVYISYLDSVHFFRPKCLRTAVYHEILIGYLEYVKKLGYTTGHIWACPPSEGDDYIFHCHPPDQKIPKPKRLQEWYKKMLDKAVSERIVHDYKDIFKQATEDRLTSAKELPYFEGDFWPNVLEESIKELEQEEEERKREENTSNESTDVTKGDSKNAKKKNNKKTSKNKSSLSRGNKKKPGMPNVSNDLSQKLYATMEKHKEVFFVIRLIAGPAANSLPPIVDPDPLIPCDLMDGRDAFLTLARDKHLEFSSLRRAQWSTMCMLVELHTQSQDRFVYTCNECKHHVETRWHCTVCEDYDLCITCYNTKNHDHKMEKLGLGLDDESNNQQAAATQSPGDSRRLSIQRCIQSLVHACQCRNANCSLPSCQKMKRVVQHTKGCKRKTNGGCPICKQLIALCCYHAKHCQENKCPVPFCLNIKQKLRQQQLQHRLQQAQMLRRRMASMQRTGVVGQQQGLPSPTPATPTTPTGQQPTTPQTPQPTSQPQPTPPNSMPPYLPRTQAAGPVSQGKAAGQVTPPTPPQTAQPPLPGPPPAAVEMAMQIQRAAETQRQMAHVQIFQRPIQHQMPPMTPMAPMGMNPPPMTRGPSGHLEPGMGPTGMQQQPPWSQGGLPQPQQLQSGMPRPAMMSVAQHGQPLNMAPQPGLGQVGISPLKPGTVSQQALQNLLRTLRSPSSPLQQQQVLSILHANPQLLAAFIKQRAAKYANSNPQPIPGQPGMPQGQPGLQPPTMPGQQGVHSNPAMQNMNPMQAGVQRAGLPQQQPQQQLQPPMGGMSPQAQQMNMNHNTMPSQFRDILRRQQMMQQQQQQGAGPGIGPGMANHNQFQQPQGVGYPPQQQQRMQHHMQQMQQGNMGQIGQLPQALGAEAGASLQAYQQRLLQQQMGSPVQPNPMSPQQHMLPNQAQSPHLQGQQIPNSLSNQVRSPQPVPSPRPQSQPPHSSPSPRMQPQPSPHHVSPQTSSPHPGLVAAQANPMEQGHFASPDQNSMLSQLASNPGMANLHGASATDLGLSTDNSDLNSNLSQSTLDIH

Assays:
EP300 [1] = target: EP300 (UniProt Q09472); assay: EMSA supershift; conditions: anti-EP300 1 or 1.5 ug, bands 3 and 4 weakened, C stronger than T for band 3; Beyotime 5x EMSA/Gel-Shift Binding buffer (2 uL), SH-SY5Y nuclear extract 1.5-6 ug, 50 fmol biotin probe, unlabeled competitor 750 fmol; protein in an extract; label: 3' biotin
REST [2] = target: T1, REST (UniProt Q13127); assay: EMSA supershift; conditions: anti-REST 0.8 ug, 6 ug extract, band 3 weakened, C stronger than T for band 3; Beyotime 5x EMSA/Gel-Shift Binding buffer (2 uL), SH-SY5Y nuclear extract 1.5-6 ug, 50 fmol biotin probe, unlabeled competitor 750 fmol; protein in an extract; label: 3' biotin
T1 sequence (looked up, limits assumed): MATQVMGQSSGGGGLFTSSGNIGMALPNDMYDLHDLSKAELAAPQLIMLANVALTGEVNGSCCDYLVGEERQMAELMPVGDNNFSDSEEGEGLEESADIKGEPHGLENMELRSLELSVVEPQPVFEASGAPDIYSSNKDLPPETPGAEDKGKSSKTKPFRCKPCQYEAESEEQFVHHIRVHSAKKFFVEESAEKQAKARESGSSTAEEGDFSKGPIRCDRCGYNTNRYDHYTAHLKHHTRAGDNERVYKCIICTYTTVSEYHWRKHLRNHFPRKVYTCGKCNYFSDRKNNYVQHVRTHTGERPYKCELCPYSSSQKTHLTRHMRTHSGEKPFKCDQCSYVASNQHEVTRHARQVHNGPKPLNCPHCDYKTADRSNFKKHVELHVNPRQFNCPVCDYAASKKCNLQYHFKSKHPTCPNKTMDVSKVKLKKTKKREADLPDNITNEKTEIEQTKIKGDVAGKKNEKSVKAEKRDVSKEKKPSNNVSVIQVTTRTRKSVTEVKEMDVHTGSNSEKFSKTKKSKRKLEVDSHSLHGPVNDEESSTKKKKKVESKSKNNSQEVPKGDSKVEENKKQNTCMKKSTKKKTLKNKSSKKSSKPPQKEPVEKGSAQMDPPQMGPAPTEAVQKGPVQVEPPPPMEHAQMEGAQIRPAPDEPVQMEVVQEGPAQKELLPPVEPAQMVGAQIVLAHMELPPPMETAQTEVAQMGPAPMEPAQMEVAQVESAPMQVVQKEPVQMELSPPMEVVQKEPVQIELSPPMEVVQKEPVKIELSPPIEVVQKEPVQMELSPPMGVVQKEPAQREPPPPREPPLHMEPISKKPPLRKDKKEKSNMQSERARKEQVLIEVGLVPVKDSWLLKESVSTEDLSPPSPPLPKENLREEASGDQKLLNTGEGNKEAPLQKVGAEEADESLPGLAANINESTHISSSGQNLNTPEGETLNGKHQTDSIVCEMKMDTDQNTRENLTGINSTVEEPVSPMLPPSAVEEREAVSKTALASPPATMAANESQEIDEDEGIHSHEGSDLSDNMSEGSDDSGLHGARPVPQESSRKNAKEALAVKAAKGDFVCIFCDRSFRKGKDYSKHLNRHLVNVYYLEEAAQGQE

EP300 [3] = target: EP300 (UniProt Q09472); assay: EMSA; conditions: band 3 (weakened by EP300 antibody) weaker than C allele, supershift per allele not stated; Beyotime 5x EMSA/Gel-Shift Binding buffer (2 uL), SH-SY5Y nuclear extract 1.5-6 ug, 50 fmol biotin probe, unlabeled competitor 750 fmol; protein in an extract; label: 3' biotin
REST [4] = target: T1, REST; assay: EMSA; conditions: band 3 (assigned to REST by antibody) weaker than C allele, supershift per allele not stated; Beyotime 5x EMSA/Gel-Shift Binding buffer (2 uL), SH-SY5Y nuclear extract 1.5-6 ug, 50 fmol biotin probe, unlabeled competitor 750 fmol; protein in an extract; label: 3' biotin

| Sequence | binding result (EP300 [1]) | binding result (REST [2]) | binding result (EP300 [3]) | binding result (REST [4]) |
| --- | --- | --- | --- | --- |
| GGATGGGAGCTTTCCTGGCCCCAGTGCCCCATGGGTTAGTG (double strand) [rs10786700 C allele (risk) 41 bp] | binds | binds |  |  |
| GGATGGGAGCTTTCCTGGCCTCAGTGCCCCATGGGTTAGTG (double strand) [rs10786700 T allele (non-risk) 41 bp] |  |  | binds more weakly | binds more weakly |
